Experimental findings from PMC4858745 are described below.

The chains behind the UniProt entries cited, without tags or fusion partners. Where a name states a change or a piece, a line headed by the entry shows the natural chain unless it says otherwise. Residues count along the entry.
UniProt Q2TB54: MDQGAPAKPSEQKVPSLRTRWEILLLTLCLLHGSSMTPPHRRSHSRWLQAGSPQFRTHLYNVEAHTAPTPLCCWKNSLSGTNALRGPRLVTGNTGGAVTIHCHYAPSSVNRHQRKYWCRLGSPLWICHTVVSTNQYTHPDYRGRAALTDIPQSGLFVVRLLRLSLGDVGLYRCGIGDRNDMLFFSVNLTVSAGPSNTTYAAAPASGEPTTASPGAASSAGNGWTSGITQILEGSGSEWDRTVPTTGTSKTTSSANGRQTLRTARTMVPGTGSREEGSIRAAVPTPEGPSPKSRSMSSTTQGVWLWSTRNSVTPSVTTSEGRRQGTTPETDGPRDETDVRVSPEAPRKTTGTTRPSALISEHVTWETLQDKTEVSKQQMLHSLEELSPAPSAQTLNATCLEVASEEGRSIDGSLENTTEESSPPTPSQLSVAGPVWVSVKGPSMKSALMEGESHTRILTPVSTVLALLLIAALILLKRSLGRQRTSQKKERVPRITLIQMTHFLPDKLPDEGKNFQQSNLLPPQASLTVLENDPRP
UniProt Q9QUK6, residues 26-835: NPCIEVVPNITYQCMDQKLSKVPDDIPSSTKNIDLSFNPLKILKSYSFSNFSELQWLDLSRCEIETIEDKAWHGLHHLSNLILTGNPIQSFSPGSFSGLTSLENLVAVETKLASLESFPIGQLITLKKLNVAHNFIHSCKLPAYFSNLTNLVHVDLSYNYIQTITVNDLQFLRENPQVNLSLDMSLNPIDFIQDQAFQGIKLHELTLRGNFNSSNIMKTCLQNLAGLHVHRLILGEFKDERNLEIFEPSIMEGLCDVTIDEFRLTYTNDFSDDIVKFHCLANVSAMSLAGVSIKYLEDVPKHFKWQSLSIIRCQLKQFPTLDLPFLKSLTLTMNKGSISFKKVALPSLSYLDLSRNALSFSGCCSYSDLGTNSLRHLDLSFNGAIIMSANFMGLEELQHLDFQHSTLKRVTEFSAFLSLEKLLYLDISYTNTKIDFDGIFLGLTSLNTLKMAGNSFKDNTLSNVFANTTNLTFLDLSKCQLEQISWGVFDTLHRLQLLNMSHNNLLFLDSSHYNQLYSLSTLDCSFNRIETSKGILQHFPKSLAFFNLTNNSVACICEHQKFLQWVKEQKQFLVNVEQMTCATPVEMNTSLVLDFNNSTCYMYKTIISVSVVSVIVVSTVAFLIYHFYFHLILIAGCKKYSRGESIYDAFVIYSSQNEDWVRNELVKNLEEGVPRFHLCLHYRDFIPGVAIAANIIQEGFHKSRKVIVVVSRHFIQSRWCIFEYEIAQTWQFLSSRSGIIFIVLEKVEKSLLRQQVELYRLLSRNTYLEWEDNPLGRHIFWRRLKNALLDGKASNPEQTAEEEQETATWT

The assay has as its target HA-tagged Fcα/μR lacking the immunoglobulin-like domain (UniProt Q2TB54). The experiment in a line: co-IP; Ba/F3 transfectants lysed in 1% digitonin, 0.12% Triton X-100, 150 mM NaCl, 20 mM triethanolamine; IP anti-HA and blot anti-Flag by the legend (the methods say IP anti-Flag, blot anti-HA); with or without LPS stimulation.

Results are given in words; binding and its absence hold for the method and conditions named. Binding seen in cells or lysates may run through a third protein. Binding calls can cover weak binding; strength is not graded here.

For “Flag-tagged TLR4 (from UniProt Q9QUK6 26-835) (receptor)”, the binding entry is given as “binds”.
